Measurements from PubChem BioAssay AID504648 (National Center for Advancing Translational Sciences (NCATS), 2011).
About 610 (0.16%) of roughly 390,000 compounds were called active. The shares of active, inactive and inconclusive entries below differ from those in the screen. Calls follow the shape of the dose curve; as a rule, active = well fitted inhibition curve with a large enough effect; inconclusive = small, poorly fitted or top-dose-only effect, or effect the other way, or another doubt; inactive = no such curve, though single readings can be large or run the other way. Potencies beside an inconclusive call are fits to weak or partial responses and may not hold up.

Test: Nrf2 qHTS screen for inhibitors: counterscreen for cytotoxicity
Conditions: A549 ARE-Fluc cells, CellTiter-Fluor viability, 18-24 h; activity change, negative = cytotoxicity: at 46 µM (top of the series)
Summary of the method: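 A549 ARE-Fluc cells in 5% FBS OPTI-MEM, 5000 cells/well, rested 2 h then exposed to compounds in concentration-response for 18-24 h at 37 °C. Viability by CellTiter-Fluor fluorescence (Ex 405/Em 525) after 30 min; luciferase luminescence (BugLite, 15 min, RT) read afterwards.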
% is scaled to controls: 0 for no effect and ±100 for the full control effect; potency is read from the fitted curve at half-maximal effect.

| Structure (SMILES) | Potency | activity change, negative = cytotoxicity |
| --- | --- | --- |
| O=C1NC(=S)SC1=Cc1ccccc1Cl | inconclusive: 29.1 µM [falling, partial curve, poor fit] |  |
| O=S(=O)(O)c1cccc2cccc(Nc3ccccc3)c12 | inconclusive: 13 µM [activator, partial curve] |  |
| COc1cccc(/C=N/NC(N)=S)c1OS(=O)(=O)c1ccccc1 | inactive |  |
| O=C(Nc1ccc(S(=O)(=O)N2CCCCCC2)cc1)c1cc(=O)c2ccccc2o1 | inactive |  |
| CCc1nnc(SCc2cn3c(C)cc(C)nc3n2)n1N | inactive |  |
| CC(C)(C)c1cc(CCC(=O)NNC(=S)NC(=O)c2ccccc2)cc(C(C)(C)C)c1O | inconclusive: 11.6 µM [falling, partial curve, poor fit] |  |
| CCOC(=O)c1ccc(NC(=O)c2nn(C)c3c2COc2ccccc2-3)cc1 | inactive |  |
| C=CC[C@@H](CC(=O)N(CCO)Cc1ccccc1)C(=O)NC[C@H](OC(=O)[C@@H](CC=C)Cc1ccc(F)cc1)c1ccccc1 | inconclusive: 25.9 µM [falling, single point] |  |
| COc1ccc(/C=N/Nc2ncnc3sc4c(c23)CCCC4)cc1OC | inconclusive: 16.4 µM [falling, partial curve, poor fit] |  |
| CN(C)CCNc1c2c(nc3ccccc13)CCC2 | inconclusive: 2.59 µM [falling, full curve] |  |
| C/C=C/C=C\C(=O)Nc1cccc(C2=NOC3(C2)C[C@H](C(N)=O)N(C(=O)CC#N)C3)c1 (some centres not stated) | inactive |  |
| COc1ccc(CCNc2nc(=S)[nH]c3cc(OC)c(OC)cc23)cc1OC | inactive |  |
| Cc1cc2c(n1-c1ccc(C(N)=O)cc1)CC(C)(C)CC2=O | inactive |  |
| CCOc1ccc(S(=O)(=O)N2CC(=O)Nc3ccccc32)cc1C#N | inconclusive: 29.1 µM [falling, partial curve, poor fit] |  |
| Cc1cc(-n2c(SCC(=O)Nc3ccc(Br)cc3)nc3n[nH]c(C)c3c2=N)ccc1Cl | inconclusive: 23.1 µM [falling, single point] |  |
| CCCc1ccc(-c2cc(C(=O)N3CCN(c4ccccn4)CC3)c3ccccc3n2)cc1 | inconclusive: 16.4 µM [falling, partial curve, poor fit] |  |
| CCCCCn1c(=N)n(CC(O)COc2ccccc2OC)c2ccccc21 (configuration not stated) | inconclusive: 23.1 µM [falling, partial curve, poor fit] |  |
| COc1ccc(NS(=O)(=O)c2ccc(NC(=S)NC(=O)c3cccc(F)c3)cc2)nn1 | inactive |  |
| Cc1cc(=O)oc2c(C)c(OCC(=O)N(C)C)ccc12 | inactive |  |
| CCOCCCn1c(SC(C)C(=O)NCC2CCCO2)nc2sc(C)c(C)c2c1=O (configuration not stated) | inactive |  |
| Cc1ccc(C(=O)c2coc3c2C(=O)C(=O)c2ccccc2-3)cc1 | inconclusive: 20.6 µM [falling, single point] |  |
| Cc1ccc(CN(Cc2ccco2)C(=O)c2oc3c(C)c(C)ccc3c2C)cc1 | inconclusive: 2.31 µM [activator, full curve, poor fit] |  |
| Cc1ccnc(SCC(=O)c2ccc(Br)s2)n1 | inactive |  |

| Structure (SMILES) | Potency | activity change, negative = cytotoxicity |
| --- | --- | --- |
| Cc1[nH]c2ccccc2c1CCNC(=O)c1ccc2c(c1[N+](=O)[O-])C(=O)c1ccccc1C2=O | inconclusive: 16.4 µM [falling, partial curve] |  |
| C=CCc1c(C)nc2nc(SCC(=O)Nc3ccc(OCC)cc3)nn2c1C | inactive |  |
| COc1ccc(CC(=O)Nc2sc(Cc3ccccc3)c(C)c2C(N)=O)cc1 | inconclusive: 7.31 µM [falling, partial curve, poor fit] |  |
| COc1ccc(NC(=O)c2cc(S(=O)(=O)N3CCOCC3)ccc2N2CCOCC2)cc1 | inconclusive: 23.1 µM [falling, partial curve, poor fit] |  |
| O=C(Nc1cccc(NC(=O)c2ccco2)c1)c1ccc2c(c1)OCO2 |  | inconclusive: -52.3% [activator] |
| O=C(CN1CCN(Cc2ccccc2)CC1)NCC1COc2ccccc2O1 (configuration not stated) | inconclusive: 2.31 µM [activator, partial curve, poor fit] |  |
| Cc1ccccc1CSc1nc2cccnc2n1Cc1ccc(C(=O)NCCc2cccs2)cc1 | inconclusive: 18.4 µM [falling, partial curve, poor fit] |  |
| Cc1ccc(-c2ccc(/C=N\NC(=O)c3cc4c(ccc5ccccc54)o3)o2)cc1[N+](=O)[O-] | inconclusive: 16.4 µM [falling, single point] |  |
| O=C(N/N=C/c1cc([N+](=O)[O-])ccc1O)c1cccc2cc[nH]c12 | inconclusive: 23.1 µM [falling, single point] |  |
| COc1ccc(Nc2nc(N)nc(CSc3nc4cc(OC)ccc4s3)n2)cc1 | inconclusive: 29.1 µM [falling, partial curve, poor fit] |  |
| COc1ccc(C2CC(c3cccs3)=NN2c2ccccc2)cc1 (configuration not stated) | inconclusive: 18.4 µM [activator, single point] |  |
| COc1ccc(N2CCN(S(=O)(=O)c3ccc4c(c3)CC(=O)N4)CC2)cc1 | inactive |  |
| O=C(O)c1cnn(-c2nc(-c3cccc(F)c3)cs2)c1C(F)(F)F | inactive |  |
| Cc1[nH]c2ccc(C(=O)N3CCN(c4cccc(Cl)c4)CC3)cc2c1C | inconclusive: 25.9 µM [falling, single point] |  |
| CCCN(CCC)CC(O)Cn1cc(/C=C/C(=O)c2ccc(OCC)cc2)c2ccccc21 (configuration not stated) | inconclusive: 23.1 µM [falling, partial curve, poor fit] |  |
| N#CC1(c2ccccc2)CCC(=NO)CC1 (configuration not stated) | inconclusive: 6.51 µM [activator, partial curve, poor fit] |  |
| Cc1cc(N=Nc2ccc(C)c(N=Nc3cc(C)c(N)cc3N)c2)c(N)cc1N | inconclusive: 20.6 µM [falling, single point] |  |
| O=C(Nc1ccccc1C(F)(F)F)N1CCN(c2ccc3nnc(-c4ccc(F)cc4)n3n2)CC1 | inactive |  |
| CN(C)S(=O)(=O)c1cccc(-c2nn(-c3ccccc3)cc2/C=C2\SC(=S)NC2=O)c1 | inconclusive: 18.4 µM [falling, single point] |  |
| CN(C)S(=O)(=O)c1cc([N+](=O)[O-])ccc1N1CCCCCC1 | inconclusive: 23.1 µM [falling, partial curve, poor fit] |  |
| CC1CCCC(NC(=S)Nc2ccc(SC(F)F)cc2)C1C (configuration not stated) | inconclusive: 20.6 µM [falling, single point] |  |
| COc1ccc(N(CC(=O)NCCSC2CCCCC2)S(C)(=O)=O)c(OC)c1 | inconclusive: 29.1 µM [activator, partial curve, poor fit] |  |
| N#Cc1nc(Nc2cc(F)cc(F)c2)nc(Nc2cc(F)cc(F)c2)n1 | inconclusive: 25.9 µM [falling, partial curve, poor fit] |  |

Arranged by molar mass (smallest number first): part of the list above

| Structure (SMILES) | Potency | activity change, negative = cytotoxicity |
| --- | --- | --- |
| COc1ccc(C2CC(c3cccs3)=NN2c2ccccc2)cc1 (configuration not stated) | inconclusive: 18.4 µM [activator, single point] |  |
| CCOc1ccc(S(=O)(=O)N2CC(=O)Nc3ccccc32)cc1C#N | inconclusive: 29.1 µM [falling, partial curve, poor fit] |  |
| COc1ccc(NC(=O)c2cc(S(=O)(=O)N3CCOCC3)ccc2N2CCOCC2)cc1 | inconclusive: 23.1 µM [falling, partial curve, poor fit] |  |

Next structures follow.

| Structure (SMILES) | Potency | activity change, negative = cytotoxicity |
| --- | --- | --- |
| N#C/C(=C/c1ccc(Sc2nc3ccccc3[nH]2)o1)c1cccc(F)c1 | active: 25.9 µM |  |
| CC(C)(C)NCC(O)COc1ccccc1C(=O)CCc1ccccc1 (configuration not stated) | inconclusive: 29.1 µM [falling, single point] |  |
| COc1cc2c(cc1NC(=O)c1cccc([N+](=O)[O-])c1)oc1ccccc12 | active: 18.4 µM |  |
| CC(C)(C)c1ccc(-c2nnc(SCCC#N)n2C2CCCC2)cc1 | inconclusive: 29.1 µM [falling, single point] |  |
| Cc1cccc(Nc2nc(N)c([N+](=O)[O-])c(N3CC(C)OC(C)C3)n2)c1 (configuration not stated) | inconclusive: 29.1 µM [falling, single point] |  |
| O=C(c1ccc(S(=O)(=O)Nc2ccccc2)cc1)N1CCCC(C(F)(F)F)C1 (configuration not stated) | inconclusive: 20.6 µM [falling, single point] |  |
| Cc1cc(Br)ccc1Nc1nc(N)nc(N)c1N=O | inactive |  |
| Cc1nn(CC(=O)OCC(=O)Nc2cccc(S(N)(=O)=O)c2)c(C)c1[N+](=O)[O-] | inactive |  |
| CCOc1ccccc1N1CCN(C(=O)c2cc3c(C)cc(C)cc3[nH]2)CC1 | inconclusive: 29.1 µM [falling, partial curve, poor fit] |  |
| NC(=O)SCC(=O)Nc1ccc(Cl)c(Cl)c1 | inactive |  |
| O=C(NC1CCN(Cc2ccccc2)CC1)c1ccc2c(c1)[nH]c(=O)n2Cc1ccc(F)cc1 | inconclusive: 13 µM [falling, partial curve, poor fit] |  |
| CCOc1ccc(Nc2ccc([N+](=O)[O-])c3nonc23)cc1 | inconclusive: 18.4 µM [falling, single point] |  |
| CCOC(=O)c1cc2c(=O)n3ccccc3nc2n(Cc2ccco2)c1=NC(=O)c1ccccc1OC | inconclusive: 14.6 µM [activator, partial curve] |  |
| COc1ccc(N=Nc2[nH]c3ccc(C)cc3c2O)cc1 | inactive |  |
| COc1ccc(Cn2c(C(=O)O)c(CNCCc3ccccc3Cl)c3ccc(C)cc32)cc1 | inconclusive: 20.6 µM [falling, single point] |  |
| Cc1cc(=O)oc2cc(OCC(=O)NC(Cc3c[nH]c4ccc(O)cc34)C(=O)O)c(Cl)cc12 (configuration not stated) | inactive |  |
| Cc1nc2nc(-c3cccs3)cn2nc1C | inconclusive: 23.1 µM [activator, partial curve] |  |
| CCCCN(C)CCN1C(=O)C2C(C(=O)Nc3ccc(C)cc3)C3C=CC2(O3)C1C(=O)NC1CCCCC1 (configuration not stated) | inactive |  |
| O=C(CSc1nc(O)c(C2CCCCC2)c(=O)[nH]1)NCC1CCCO1 (configuration not stated) | inconclusive: 9.2 µM [activator, single point] |  |
| CCOc1ccc(-c2c(C)nn3c(C)c(C(=O)NCC(C)c4ccccc4)cnc23)cc1OCC (configuration not stated) | inactive |  |
| C=CCNC(=O)/C(C#N)=C/c1ccccc1OCc1ccc(C(=O)OC)cc1 | inconclusive: 5.17 µM [activator, full curve] |  |

Random excerpt: two records from the list

| Structure (SMILES) | Potency | activity change, negative = cytotoxicity |
| --- | --- | --- |
| Cc1nn(CC(=O)OCC(=O)Nc2cccc(S(N)(=O)=O)c2)c(C)c1[N+](=O)[O-] | inactive |  |
| COc1ccc(Cn2c(C(=O)O)c(CNCCc3ccccc3Cl)c3ccc(C)cc32)cc1 | inconclusive: 20.6 µM [falling, single point] |  |
